Data source: PubChem BioAssay AID1259424 (University of Nebraska Medical Center, 2018)
The whole screen tested about 14,000 reagents; below is a random part of them. 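Higher correlation or smaller distance means closer resemblance to KSR1 loss; control wells, including KSR1 knockdowns, recur on many plates.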 Not all columns of the deposit are shown. No sequences are given here. Not stated in the record: the time to read-out.

- Assay: 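Seek colon cancer survival genes behaving like KSR1, using a six-gene signature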 (primary screen)
- Cell system: human HCT116 colon cancer cells
- Reagent: siRNA pool against human genes, 50 nM
- Measurement: 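Six signature mRNAs by branched-DNA multiplex assay, scaled to two housekeeping genes and non-targeting median, log2; matched to mean KSR1 knockdown profile by Pearson correlation and euclidean distance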
- Direction: mean correlation with KSR1 profile: higher = expression change more like KSR1 knockdown; mean distance from KSR1 profile: higher = expression change less like KSR1 knockdown

gene	mean correlation with KSR1 profile	mean distance from KSR1 profile
COPS7B (GeneID 64708)	0.388	1.5
SMCP (GeneID 4184)	-0.47	1.94
MED15 (GeneID 51586)	-0.393	3.62
MCCC1 (GeneID 56922)	0.0495	1.44
SV2A (GeneID 9900)	-0.405	2.5
BPIFA1 (GeneID 51297)	-0.687	2.34
ANKRA2 (GeneID 57763)	-0.034	0.831
ERAP2 (GeneID 64167)	-0.233	3.07
TRA2B (GeneID 6434)	-0.156	3.23
ESYT3 (GeneID 83850)	0.777	1.8
SCYL3 (GeneID 57147)	0.117	2.8
DUOX1 (GeneID 53905)	-0.504	6.75
NKTR (GeneID 4820)	0.863	1.71
PRPF19 (GeneID 27339)	-0.0939	3.47
COL12A1 (GeneID 1303)	-0.58	1.64
BMP2K (GeneID 55589)	0.234	2.12
HSP90AA2P (GeneID 3324)	-0.285	1.86
PTGR1 (GeneID 22949)	-0.252	1.6
ZNF451 (GeneID 26036)	0.28	1.53
SULF1 (GeneID 23213)	-0.124	1.65
